PubChem BioAssay AID1224826 | NIAID | 2016

Screen: 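Genes that change LPS-induced Tnf promoter activity in mouse macrophages when knocked down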 (primary screen)
System: RAW264.7 G9 macrophages from mouse bearing reporters for p65 (GFP) and the Tnf promoter (mCherry)
Reagent: siRNA pool against mouse genes, 100 nM
Duration: 16 h of LPS stimulation, after 2 days of siRNA transfection
Conditions: bacterial lipopolysaccharide (Salmonella minnesota R595), 10 ng/ml
Detection: 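Nuclear mCherry signal of the Tnf promoter reporter measured by imaging after background removal, scaled to each plate median and turned into robust z-scores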
Scale: Tnf reporter robust z-score: higher = stronger Tnf promoter reporter signal after LPS
Hit rule: 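a well counts as active at a score of -1.3 or below (Tlr4 knock-down control median) or above 3 (raised signal); controls and wells holding fewer than 50 cells are excluded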
Calls: active = Tnf reporter clearly lowered or raised; inactive = no clear change in Tnf reporter
This is a random part of about 17,000 reagents tested. In the full data, about 1,110 (6.6%) are marked active. 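Active means lowered or raised reporter signal; replicate intensities are raw and not normalised per plate.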 Further read-outs or replicates are left out here.

For Ccnt2 (cyclin T2), what does the deposit list?
Tnf reporter robust z-score: 0.17; fewer than 50 cells in well: enough cells in well; outcome: inactive

How did the screen score Adora1 (adenosine A1 receptor)?
Tnf reporter robust z-score: -1.43; fewer than 50 cells in well: enough cells in well; outcome: active

Which result is listed for Cyp39a1 (cytochrome P450, family 39, subfamily a, polypeptide 1)?
Tnf reporter robust z-score: 2.16; fewer than 50 cells in well: enough cells in well; outcome: inactive

For Sema3d, what does the deposit list?
Tnf reporter robust z-score: 1.01; fewer than 50 cells in well: enough cells in well; outcome: inactive

For Ovca2 (candidate tumor suppressor in ovarian cancer 2), what was measured?
Tnf reporter robust z-score: 1.7; fewer than 50 cells in well: enough cells in well; outcome: inactive

For Ccdc184 (coiled-coil domain containing 184), what does the deposit list?
Tnf reporter robust z-score: -0.44; fewer than 50 cells in well: enough cells in well; outcome: inactive

For Ccdc83 (coiled-coil domain containing 83), what was measured?
Tnf reporter robust z-score: -0.27; fewer than 50 cells in well: enough cells in well; outcome: inactive

What did the screen give for Ifrd1 (interferon-related developmental regulator 1)?
Tnf reporter robust z-score: 0.2; fewer than 50 cells in well: enough cells in well; outcome: inactive

For Vmn1r208 (vomeronasal 1 receptor 208), what does the deposit list?
Tnf reporter robust z-score: 0.38; fewer than 50 cells in well: enough cells in well; outcome: inactive

With Mthfd1, what was measured?
Tnf reporter robust z-score: 0.22; fewer than 50 cells in well: enough cells in well; outcome: inactive

For Anxa2 (annexin A2), how do the results read?
Tnf reporter robust z-score: -0.9; fewer than 50 cells in well: enough cells in well; outcome: inactive

With Traf2 (TNF receptor-associated factor 2), how do the results read?
Tnf reporter robust z-score: -1.21; fewer than 50 cells in well: enough cells in well; outcome: inactive
